Reference: patent US9139557B2, “Carboxamide compounds and their use as calpain inhibitors” (Abbott GmbH & Co. KG, priority 2006, dated 2015)
Where a name gives a salt, the structure may show the parent alone. At least one compound was matched to its structure with a doubt left. Some compounds share one wording; it may come from a single statement.

Amino acid sequences for entries named in this document (tags omitted). Residues count along the entry.
UniProt P07711, 114-333: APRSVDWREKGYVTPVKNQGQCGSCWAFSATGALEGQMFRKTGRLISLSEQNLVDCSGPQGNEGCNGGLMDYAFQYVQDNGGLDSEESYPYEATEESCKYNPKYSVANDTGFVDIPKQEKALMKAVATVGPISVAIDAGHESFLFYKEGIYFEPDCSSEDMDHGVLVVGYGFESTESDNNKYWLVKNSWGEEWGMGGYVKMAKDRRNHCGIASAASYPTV
UniProt P25774, 115-331: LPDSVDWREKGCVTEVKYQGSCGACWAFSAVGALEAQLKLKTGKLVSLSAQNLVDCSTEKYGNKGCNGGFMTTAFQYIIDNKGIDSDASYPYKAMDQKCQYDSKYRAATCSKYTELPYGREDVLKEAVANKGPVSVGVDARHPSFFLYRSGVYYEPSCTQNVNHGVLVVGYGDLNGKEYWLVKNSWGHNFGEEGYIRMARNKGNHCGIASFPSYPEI

Columns and labels:
Format in all cases: biochemical
cathepsin L = target: T1, cathepsin L (Homo sapiens, UniProt P07711); assay: Cathepsin L enzyme inhibition in vitro (kinetic fluorescence assay); settings: Ki(cathepsin L)/Ki(calpain) ratio
T1 construct: cathepsin L—isolated from human liver; purchased Calbiochem 219402; host or cells: human liver (tissue isolate)
Procedure: (§1) Testing for blockade of the corresponding enzymic activities was carried out by means of kinetic fluorescence assays (excitation 390 nm, emission 460 nm).
(§2) Apparent Ki values were calculated from the experimentally determined IC50 values by the Cheng-Prussoff relation assuming a reversible competitive enzyme inhibition. The Km values of the substrates used under the assay conditions indicated above were: 90 μM (Z-Phe-Arg-AMC, cathepsin B), 10 μM (Z-Gly-Pro-Arg-AMC, cathepsin K), 2 μM (Z-Phe-Arg-AMC, cathepsin L), and 30 μM (Z-Val-Val-Arg-AMC, cathepsin S).
(§3) The indicated Ki values are averages of the inhibition constants calculated on the basis of 2 to 4 independent dose-effect plots.
(§4) • 1. Calpain I: • 20 nM calpain-I—isolated from human erythrocytes (Calbiochem #208713), 100 μM Suc-Leu-Tyr-AMC (Bachem #1-1355) as substrate in buffer with 62 mM imidazole, 0.3 mM CaCl2, 0.10% CHAPS, 0.05% BSA, 1 mM DTT at pH 7.3 and room temperature. • 2. Cathepsin B: • 0.25 nM cathepsin B—isolated from human liver (Calbiochem #219362), 100 μM Z-Phe-Arg-AMC (Bachem #1-1160) as substrate 50 mM MES, 2 mM EDTA, 0.05% Brij 35, 2.5 mM L-cysteine, pH 6.0, room temperature. • 3. Cathepsin K: • 3 nM cathepsin K—activated from recombinant human procathepsin K from E. coli (Calbiochem #342001), 10 μM Z-Gly-Pro-Arg-AMC (Biomol #P-142) as substrate in 50 mM MES, 2 mM EDTA, 0.05% Brij 35, 2.5 mM L-cysteine, pH 6.0, room temperature. • 4. Cathepsin L: • 1 nM cathepsin L—isolated from human liver (Calbiochem #219402), 2 μM Z-Phe-Arg-AMC (Bachem #1-1160) as substrate in 50 mM MES, 2 mM EDTA, 0.05% Brij 35, 2.5 mM L-cysteine, pH 6.0, room temperature. • 5. Cathepsin S: • 0.5 nM recombinant human cathepsin S from E. coli (Calbiochem #219343), 20 μM Z-Val-Val-Arg-AMC (Bachem #1-1540) as substrate in 50 mM MES, 2 mM EDTA, 0.05% Brij 35, 2.5 mM L-cysteine, pH 6.0, room temperature.

cathepsin S = target: T2, cathepsin S (Homo sapiens, UniProt P25774); assay: Cathepsin S enzyme inhibition in vitro (kinetic fluorescence assay); settings: Ki(cathepsin S)/Ki(calpain) ratio
T2 construct: purchased Calbiochem 219343; host or cells: E. coli
Procedure: as §1, §2, §3, §4

cathepsin B = target: T3, cathepsin B (Homo sapiens, UniProt P07858); assay: Cathepsin B enzyme inhibition in vitro (kinetic fluorescence assay); settings: Ki(cathepsin B)/Ki(calpain) ratio
T3 construct: cathepsin B—isolated from human liver; purchased Calbiochem 219362; host or cells: human liver (tissue isolate)
Procedure: as §1, §2, §3, §4

cathepsin K = target: T4, cathepsin K (Homo sapiens, UniProt P43235); assay: Cathepsin K enzyme inhibition in vitro (kinetic fluorescence assay); settings: Ki(cathepsin K)/Ki(calpain) ratio
T4 construct: purchased Calbiochem 342001; host or cells: E. coli
T4 sequence (P43235 115-329): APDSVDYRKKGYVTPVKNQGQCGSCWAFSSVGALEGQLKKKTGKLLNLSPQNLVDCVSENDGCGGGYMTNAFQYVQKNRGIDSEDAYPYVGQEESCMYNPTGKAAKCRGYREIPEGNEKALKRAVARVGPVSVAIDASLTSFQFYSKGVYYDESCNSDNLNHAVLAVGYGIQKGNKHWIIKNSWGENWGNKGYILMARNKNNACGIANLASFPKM
Procedure: as §1, §2, §3, §4

Row | SMILES | Sel cat. L (cathepsin L) | Sel cat. S (cathepsin S) | Sel cat. B (cathepsin B) | Sel cat. K (cathepsin K)
1 | COc1ccc(CC(NC(=O)c2cccnc2-n2ccc(-c3cccc(C(F)(F)F)c3)n2)C(=O)C(N)=O)cc1 (stereo not drawn) [Example 126, N-(3-Amino-1-{[4-(methyloxy)phenyl]methyl}-2,3-dioxopropyl)-2-{3-[3-(trifluoromethyl)phenyl]-1H-pyrazol-1-yl}pyridine-3-carboxamide] | ++ (++ means a Ki(cathepsin L)/Ki(calpain) ratio of ≧50) | ++ (++ means a Ki(cathepsin S)/Ki(calpain) ratio of ≧100) | ++ (++ means a Ki(cathepsin B)/Ki(calpain) ratio of ≧30) | ++ (++ means a Ki(cathepsin K)/Ki(calpain) ratio of ≧30)
2 | NC(=O)C(=O)C(Cc1ccc(F)cc1)NC(=O)c1cccnc1-n1ccc(-c2cccc(F)c2Cl)n1 (stereo not drawn) [Example 154, N-{3-Amino-1-[(4-fluorophenyl)methyl]-2,3-dioxopropyl}-2-[3-(2-chloro-3-fluorophenyl)-1H-pyrazol-1-yl]pyridine-3-carboxamide] | ++ (++ means a Ki(cathepsin L)/Ki(calpain) ratio of ≧50) | ++ (++ means a Ki(cathepsin S)/Ki(calpain) ratio of ≧100) | ++ (++ means a Ki(cathepsin B)/Ki(calpain) ratio of ≧30) | ++ (++ means a Ki(cathepsin K)/Ki(calpain) ratio of ≧30)
3 | NC(=O)C(=O)C(Cc1ccccc1)NC(=O)c1cc(Cl)cnc1-n1cnc(-c2ccccc2)c1 (stereo not drawn) [Example 23, N-(3-Amino-1-benzyl-2,3-dioxopropyl)-5-chloro-2-(4-phenyl-1H-imidazol-1-yl)nicotinamide hydrochloride] | + (+ means 30≦Ki(cathepsin L)/Ki(calpain)<50) |  |  | 
4 | CCN(CC)c1ccc(-c2cn(-c3ncccc3C(=O)NC(Cc3ccccc3)C(=O)C(N)=O)cn2)cc1 (stereo not drawn) [Example 16, N-(3-Amino-1-benzyl-2,3-dioxopropyl)-2-{4-[4-(diethylamino)phenyl]-1H-imidazol-1-yl}nicotinamide hydrochloride] | + (+ means 30≦Ki(cathepsin L)/Ki(calpain)<50) | + (+ means 50≦Ki(cathepsin S)/Ki(calpain)<100) |  | 
5 | O=C[C@H](Cc1ccccc1)NC(=O)c1cccnc1-n1ccc(-c2ccccc2)n1 [Example 105, N-[(1S)-1-Formyl-2-phenylethyl]-2-(3-phenyl-1H-pyrazol-1-yl)pyridine-3-carboxamide] | ++ (++ means a Ki(cathepsin L)/Ki(calpain) ratio of ≧50) | ++ (++ means a Ki(cathepsin S)/Ki(calpain) ratio of ≧100) | ++ (++ means a Ki(cathepsin B)/Ki(calpain) ratio of ≧30) | 
6 | NC(=O)C(=O)C(Cc1ccc(OC(F)(F)F)cc1)NC(=O)c1cccnc1-n1ccc(-c2cccc3ccccc23)n1 (stereo not drawn) [Example 138, N-[3-Amino-2,3-dioxo-1-({4-[(trifluoromethyl)oxy]phenyl}methyl)propyl]-2-(3-naphthalen-1-yl-1H-pyrazol-1-yl)pyridine-3-carboxamide] | ++ (++ means a Ki(cathepsin L)/Ki(calpain) ratio of ≧50) | ++ (++ means a Ki(cathepsin S)/Ki(calpain) ratio of ≧100) | ++ (++ means a Ki(cathepsin B)/Ki(calpain) ratio of ≧30) | ++ (++ means a Ki(cathepsin K)/Ki(calpain) ratio of ≧30)
7 | NC(=O)C(=O)C(Cc1ccccc1)NC(=O)c1cccnc1-n1ccc(-c2ccc3ocnc3c2)n1 (stereo not drawn) [Example 129, N-[3-Amino-2,3-dioxo-1-(phenylmethyl)propyl]-2-[3-(1,3-benzoxazol-5-yl)-1H-pyrazol-1-yl]pyridine-3-carboxamide] |  | ++ (++ means a Ki(cathepsin S)/Ki(calpain) ratio of ≧100) |  | 
8 | NC(=O)C(=O)C(Cc1ccccc1)NC(=O)c1cccnc1-n1cnc(-c2cccc(Cl)c2)c1 (stereo not drawn) [Example 22, N-(3-Amino-1-benzyl-2,3-dioxopropyl)-2-[4-(3-chlorophenyl)-1H-imidazol-1-yl]nicotinamide] | + (+ means 30≦Ki(cathepsin L)/Ki(calpain)<50) | ++ (++ means a Ki(cathepsin S)/Ki(calpain) ratio of ≧100) |  | 
